Values quoted from earlier work as cited in patent US20080194024A1, “Culture of Non-Embryonic Cells at High Cell Density” (priority 2005, published 2008).
A number of entries come with more than one value. This list holds those alone. There may be further records. Values given together differ for a reason that is not stated; dose, time, organism, isomer or construct need not be as stated for each record.

System: CDK1-cyclin B complex
Details: read-out: IC50 CDK1-cyclin B complex; values marked a: L. Meijer et al., unpublished; cited from earlier work

Cn1sc(=O)n(Cc2ccccc2)c1=O [TDZD8]
IC50: > 100 µM and > 10 µM
